The target in this experiment is Flag-RCOR1 (UniProt Q9UKL0). Put plainly: co-IP; Flag-tagged bait stably expressed in H209, H69 and H526 cells; endogenous partner detected.

By UniProt entry, the sequences of proteins in these tests, tags left out.
UniProt Q9UKL0: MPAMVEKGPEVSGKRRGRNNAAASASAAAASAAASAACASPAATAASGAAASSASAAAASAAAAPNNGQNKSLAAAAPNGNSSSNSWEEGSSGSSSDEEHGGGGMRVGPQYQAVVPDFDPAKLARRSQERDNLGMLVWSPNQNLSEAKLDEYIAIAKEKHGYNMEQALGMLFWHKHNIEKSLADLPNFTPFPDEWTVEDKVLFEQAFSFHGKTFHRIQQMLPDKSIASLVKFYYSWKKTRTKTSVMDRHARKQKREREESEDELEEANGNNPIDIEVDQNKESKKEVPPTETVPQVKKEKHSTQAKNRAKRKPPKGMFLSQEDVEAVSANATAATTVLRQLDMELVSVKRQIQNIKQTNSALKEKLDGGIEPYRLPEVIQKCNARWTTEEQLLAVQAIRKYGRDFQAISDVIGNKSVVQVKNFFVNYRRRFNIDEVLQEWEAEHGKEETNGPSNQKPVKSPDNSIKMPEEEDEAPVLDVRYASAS

Results are given in words; binding and its absence hold for the method and conditions named. Binding seen in cells or lysates may run through a third protein. Some binding calls cover weakened binding; strength is not graded here.

B1: endogenous E2F7 (protein, UniProt Q96AV8 1-911)
chain: MEVNCLTLKDLISPRQPRLDFAVEDGENAQKENIFVDRSRMAPKTPIKNEPIDLSKQKKFTPERNPITPVKFVDRQQAEPWTPTANLKMLISAASPDIRDREKKKGLFRPIENKDDAFTDSLQLDVVGDSAVDEFEKQRPSRKQKSLGLLCQKFLARYPSYPLSTEKTTISLDEVAVSLGVERRRIYDIVNVLESLHLVSRVAKNQYGWHGRHSLPKTLRNLQRLGEEQKYEEQMAYLQQKELDLIDYKFGERKKDGDPDSQEQQLLDFSEPDCPSSSANSRKDKSLRIMSQKFVMLFLVSKTKIVTLDVAAKILIEESQDAPDHSKFKTKVRRLYDIANVLTSLALIKKVHVTEERGRKPAFKWIGPVDFSSSDEELVDVSASVLPELKRETYGQIQVCAKQKLARHGSFNTVQASERIQRKVNSEPSSPYREEQGSGGYSLEIGSLAAVYRQKIEDNSQGKAFASKRVVPPSSSLDPVAPFPVLSVDPEYCVNPLAHPVFSVAQTDLQAFSMQNGLNGQVDVSLASAASAVESLKPALLAGQPLVYVPSASLFMLYGSLQEGPASGSGSERDDRSSEAPATVELSSAPSAQKRLCEERKPQEEDEPATKRQSREYEDGPLSLVMPKKPSDSTDLASPKTMGNRASIPLKDIHVNGQLPAAEEISGKATANSLVSSEWGNPSRNTDVEKPSKENESTKEPSLLQYLCVQSPAGLNGFNVLLSGSQTPPTVGPSSGQLPSFSVPCMVLPSPPLGPFPVLYSPAMPGPVSSTLGALPNTGPVNFSLPGLGSIAQLLVGPTAVVNPKSSTLPSADPQLQSQPSLNLSPVMSRSHSVVQQPESPVYVGHPVSVVKLHQSPVPVTPKSIQRTHRETFFKTPGSLGDPVLKRRERNQSRNTSSAQRRLEIPSGGAD
For the molecule B1, the binding entry is recorded as “binds”.

The values above are taken from publication PMC10516997.
